Drawing on paper PMC8634639, this text covers binding for 2 substances.

By UniProt entry, the sequences of proteins in these tests, tags left out.
UniProt Q00987: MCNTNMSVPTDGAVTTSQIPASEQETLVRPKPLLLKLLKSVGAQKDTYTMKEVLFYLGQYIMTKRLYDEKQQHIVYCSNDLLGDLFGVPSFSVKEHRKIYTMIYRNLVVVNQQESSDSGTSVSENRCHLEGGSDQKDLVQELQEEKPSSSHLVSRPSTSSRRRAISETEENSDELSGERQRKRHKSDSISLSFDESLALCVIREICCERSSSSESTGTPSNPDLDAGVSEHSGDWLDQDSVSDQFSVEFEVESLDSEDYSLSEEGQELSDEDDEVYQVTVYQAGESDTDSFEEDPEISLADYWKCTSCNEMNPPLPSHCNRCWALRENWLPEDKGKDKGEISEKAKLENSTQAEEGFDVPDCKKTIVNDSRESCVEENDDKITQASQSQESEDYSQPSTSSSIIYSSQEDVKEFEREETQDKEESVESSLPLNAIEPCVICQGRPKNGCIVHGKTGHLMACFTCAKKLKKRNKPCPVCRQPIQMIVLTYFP
UniProt Q969H0: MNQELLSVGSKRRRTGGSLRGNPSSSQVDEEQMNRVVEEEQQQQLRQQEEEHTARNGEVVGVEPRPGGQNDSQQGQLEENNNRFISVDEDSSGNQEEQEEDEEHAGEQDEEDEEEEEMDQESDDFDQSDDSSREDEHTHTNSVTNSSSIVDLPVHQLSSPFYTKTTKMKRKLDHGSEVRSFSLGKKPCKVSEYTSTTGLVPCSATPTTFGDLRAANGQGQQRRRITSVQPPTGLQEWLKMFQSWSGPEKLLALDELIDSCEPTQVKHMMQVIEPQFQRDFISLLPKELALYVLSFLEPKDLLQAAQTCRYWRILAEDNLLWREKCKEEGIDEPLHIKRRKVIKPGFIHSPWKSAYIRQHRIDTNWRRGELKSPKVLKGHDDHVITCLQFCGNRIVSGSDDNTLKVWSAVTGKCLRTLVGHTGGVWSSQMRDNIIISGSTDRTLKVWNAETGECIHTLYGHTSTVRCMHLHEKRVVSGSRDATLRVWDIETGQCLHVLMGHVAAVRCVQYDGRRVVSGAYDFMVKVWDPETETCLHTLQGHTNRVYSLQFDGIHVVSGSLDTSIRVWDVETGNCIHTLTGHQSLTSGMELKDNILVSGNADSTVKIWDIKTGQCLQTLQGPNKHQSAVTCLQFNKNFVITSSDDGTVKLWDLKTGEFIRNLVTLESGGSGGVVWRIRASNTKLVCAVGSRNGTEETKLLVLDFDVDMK

No constants are given. Whether binding was seen depends on the method and setting. In cells and extracts the contact can be indirect. Some results given as binding are weak or reduced against the parent protein; the word gives no strength.

Test [1] has as its target T1, VDAC3 (human (endogenous in 293T)) (UniProt Q9Y277).
T1 sequence: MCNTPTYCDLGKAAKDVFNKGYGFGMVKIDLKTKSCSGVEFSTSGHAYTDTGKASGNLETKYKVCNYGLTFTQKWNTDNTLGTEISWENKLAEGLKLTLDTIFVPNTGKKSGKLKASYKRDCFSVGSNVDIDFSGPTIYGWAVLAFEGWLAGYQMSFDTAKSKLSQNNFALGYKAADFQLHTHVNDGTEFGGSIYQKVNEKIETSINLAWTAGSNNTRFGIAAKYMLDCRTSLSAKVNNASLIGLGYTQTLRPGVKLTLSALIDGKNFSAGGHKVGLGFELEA
Put plainly: co-IP; Co-IP and IB assays; no figure shown; cells and direction of the precipitation not stated.

Test [2] concerns the target T1, VDAC3 (human (endogenous in 293T)). The test can be described thus: co-IP; whole cell lysates (293T cells by the discussion), about 1 mg protein extract, 3 ug anti-VDAC3 or anti-FBXW7 antibody or normal IgG overnight at 4°C, protein A/G beads, four washes with IP lysis buffer, immunoblot of the partner. (In general: Immunoblotting shows a protein as a band on a membrane.)

Regarding MDM2 (from UniProt Q00987 1-491), the binding result in test [1] is recorded as “no binding”.

For “F-box and WD repeat domain containing 7 (FBXW7) (from UniProt Q969H0 1-707)”, the binding entry in test [2] is listed as “binds”.
